Experimental data published in PubChem BioAssay AID2685 (National Center for Advancing Translational Sciences (NCATS), 2010).
The other results are listed elsewhere or left out. Further columns of the screen follow, without active or inactive calls. The list favours compounds with an active or inconclusive main result. Potencies come from curve fits of mixed quality, noted in brackets.

Assay: qHTS Assay for Lipid Storage Modulators in Drosophila S3 Cells;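 as to cell number change: cells counted by Cell Tracker Red CMTPX staining in the red channel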
Conditions: BODIPY lipid droplet fluorescence, 18-24 h; for cell number change: measured here: cell count max response, cells fed with added oleic acid
How it was run: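 Drosophila S3 cells loaded with oleic acid (400 uM, as added) and compounds at several concentrations; lipid droplets imaged by 488-nm laser-scanning cytometry, 500–530 nm intensity and object ratio to cell channel. Percent activity normalized to 20 uM Triacsin C.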

[1] = measured here: lipid fluorescence (Fed channel) AC50, cells fed with added oleic acid
[2] = measured here: cell number channel AC50, cells fed with added oleic acid

Structure (SMILES)	AC50 [1]	cell number change	AC50 [2]
O=C(OCC(=O)N1CCN(c2ccccc2)CC1)c1ccco1	18.4 µM [falling, partial curve]	–	–
COc1cccc(NC(=O)Cn2c(=O)n(-c3ccccc3)c(=O)c3oc4ccccc4c32)c1	3.66 µM [rising, full curve]	15.9%	0.00461 µM [falling, full curve, poor fit]
COc1ccc(C(=O)Oc2ccc(/C=N/NC(=O)c3cccnc3)cc2OC)cc1	8.2 µM [falling, partial curve]	-30%	0.82 µM [falling, full curve, poor fit]
CCOc1ccccc1NC(=O)CSc1nnc(CNC(=O)c2cccs2)o1	–	18.4%	0.82 µM [rising, full curve, poor fit]
COc1ccc(NC(=O)CN2CCN(C3c4ccccc4-c4ccccc43)CC2)cc1	2.59 µM [rising, single point]	-12.5%	–
Cn1ccnc1SCC(=O)c1ccc([N+](=O)[O-])cc1	–	91.7%	14.6 µM [rising, partial curve]
Cc1ccccc1NC(=O)CC(=O)Nc1ccccc1C	6.51 µM [rising, single point]	–	–
O=C(C1=NOC(CNc2ncc(C(F)(F)F)cc2Cl)C1)N1CCOCC1 (centres undefined)	0.00461 µM [falling, full curve, poor fit]	15.4%	–
Cc1nc(NC(=O)COC(=O)c2cc3c(s2)CCC(C)C3)c(Cl)cc1Cl (centres undefined)	0.82 µM [rising, partial curve]	18.9%	–
COc1ccc(C(=O)NC2CCCc3c2cnn3-c2ccccc2F)o1 (centres undefined)	0.291 µM [falling, partial curve, poor fit]	9.43%	0.58 µM [falling, full curve]
COc1ccc2nc3c(cc2c1)c(NC(=O)C1CCCO1)nn3CC(C)C (centres undefined)	10.3 µM [falling, partial curve, poor fit]	-38.9%	16.4 µM [falling, single point]
CNC(=O)C(C)NS(=O)(=O)c1ccc(F)cc1 (centres undefined)	23.1 µM [falling, partial curve]	-15.7%	–
CC(Sc1nnnn1C)C(=O)NC1CCCc2ccccc21 (centres undefined)	–	-26.1%	–
Cc1ccc2c(-c3csc(N)n3)c[nH]c2c1	2.59 µM [rising, full curve]	-23.6%	–
Cc1c(CNC(=O)c2cnn3c2NC(c2ccc(Br)cc2)CC3C(F)(F)F)cnn1C (centres undefined)	0.058 µM [rising, full curve]	-3.64%	–
Cc1nn(-c2ccccc2)c(Cl)c1/C=N/Nc1nncc(=O)[nH]1	–	11.1%	–
CN1C(=O)C2(C(C#N)=C(N)N(c3cc(Cl)cc(Cl)c3)C3=C2C(=O)CC(C)(C)C3)c2ccccc21 (centres undefined)	0.461 µM [falling, full curve, poor fit]	-3.32%	–
COc1cccc(CN(C)CC(=O)Nc2ccccc2C(=O)Nc2ccccc2)c1	–	37%	18.4 µM [rising, partial curve]
Cc1cccc(OC(=O)c2cccnc2)c1C	–	-1.17%	–
CCOc1ccc(C2=C/C(=C/c3cccnc3)C(=O)O2)cc1	2.06 µM [rising, partial curve]	–	–

A few values from the list:
AC50 [1], Cc1c(CNC(=O)c2cnn3c2NC(c2ccc(Br)cc2)CC3C(F)(F)F)cnn1C (centres undefined) is entered as 0.058 µM [rising, full curve]
cell number change, COc1cccc(CN(C)CC(=O)Nc2ccccc2C(=O)Nc2ccccc2)c1 is entered as 37%
cell number change, Cc1ccc2c(-c3csc(N)n3)c[nH]c2c1 is entered as -23.6%

(continued)

Structure (SMILES)	AC50 [1]	cell number change	AC50 [2]
COc1cc(/C=C(\C#N)C(=O)Nc2ccccc2C(=O)O)cc(Cl)c1OC	–	-115%	–
O=[N+]([O-])c1ccc(O)c(/C=N/Nc2ccccc2Cl)c1	–	-8.88%	–
O=C1c2cccc3c([N+](=O)[O-])ccc(c23)C(=O)N1CCc1ccccn1	14.6 µM [rising, single point]	–	–
Cc1ccc2c(CC(=O)OCC(=O)Nc3ccc(Cl)cn3)coc2c1	0.92 µM [falling, full curve]	–	6.51 µM [rising, partial curve]
CCOc1ccc(S(=O)(=O)N2CCC(C(=O)N3CCOCC3)CC2)cc1Cl	1.41 µM [rising, partial curve]	-21.1%	–
COc1ccc(NC(=O)CCNS(=O)(=O)c2ccc3c(c2)c(=O)n(C)c(=O)n3C)c(OC)c1	18.4 µM [rising, single point]	-40.1%	–
O=C(Nc1cccc(S(=O)(=O)N2CCOCC2)c1)c1cccc(S(=O)(=O)N2CCCC2)c1	–	23.3%	–
CC(NCc1cc(Br)ccc1OCC(=O)NCc1ccccc1)c1ccccc1 (centres undefined)	29.1 µM [falling, single point]	6.05%	–
CCc1ccc(CN(C)CC(=O)Nc2ccc(S(=O)(=O)N3CCOCC3)cc2)cc1	0.00461 µM [falling, full curve, poor fit]	-9.03%	–
O=C(CCN1C(=O)c2ccccc2C1=O)N1CCN(C2c3ccccc3-c3ccccc32)CC1	0.58 µM [falling, single point]	40.4%	16.4 µM [rising, single point]
CCCOc1ccccc1-n1sc2c(c1=S)-c1cc(OC)cc3c1N(C(=O)C3=O)C2(C)C	0.58 µM [rising, single point]	1.06%	0.731 µM [rising, single point]
CCN1CCN(CC(=O)c2c(C)n(C)c3ccc(OC)cc23)CC1	0.82 µM [falling, full curve]	-32.5%	36.6 µM [falling, single point]
Cc1cccc(OCCCC(=O)Nc2ccc(S(=O)(=O)N3CCCC3)cc2)c1	14.6 µM [falling, single point]	-33.8%	13 µM [falling, single point]
Cc1cccn2c(=O)c3cc(C(=O)NCCc4ccccc4)c(=N)n(Cc4ccco4)c3nc12	1.46 µM [falling, partial curve]	-8.73%	–
CCn1c(COc2ccccc2C)nnc1SCC(=O)OC	23.1 µM [falling, partial curve]	-12.6%	–
Cc1ccc2nc3n(c(=O)c2c1)-c1cc(Cl)ccc1C(=O)NC3Cc1ccccc1 (centres undefined)	–	16.9%	4.61 µM [rising, single point]
COc1ccccc1Nc1nnc(C)c(=O)[nH]1	23.1 µM [rising, partial curve]	22.1%	–
O=C(CSc1nnc(Nc2ccccc2)s1)NCC1CCCO1 (centres undefined)	–	-34.5%	32.6 µM [falling, single point]
CCC(=O)N1CCc2cc(Br)cc(S(=O)(=O)C3(C(=O)OC)CC3)c21	5.17 µM [rising, single point]	–	–
CC(C)(C)n1ncc2c(=O)n(CC(=O)NCc3ccccc3Cl)cnc21	0.82 µM [rising, single point]	-13.1%	–

Structure (SMILES)	AC50 [1]	cell number change	AC50 [2]
CCCCCCCCn1ccc(=N)cc1	29.1 µM [falling, single point]	-59.1%	14.6 µM [falling, partial curve]
Clc1ccc(Cn2cc(/C=N/n3cnnc3)c3ccccc32)c(Cl)c1	23.1 µM [falling, single point]	-83.6%	29.1 µM [falling, single point]
Cc1ccccc1OCC(=O)Nc1ccccc1C(=O)N1CCCCC1	4.11 µM [falling, single point]	-4.91%	–
Cc1ccc(CNC(=O)c2sc3ccc(S(=O)(=O)N4CCCCC4)cc3c2N)cc1	29.1 µM [falling, single point]	-21.6%	–
O=C(NC1CCCC1)c1ccccc1-c1nc2ccccc2[nH]1	29.1 µM [rising, partial curve]	50.3%	25.9 µM [rising, single point]
CCCCn1c(-c2ccccc2)nc2c(=O)n(C)c(=O)[nH]c21	6.51 µM [falling, single point]	2.05%	–
COc1ccccc1C(=O)Nc1cccc(Oc2c(F)c(F)c(F)c(F)c2F)c1	1.64 µM [rising, partial curve]	28.6%	–
Cc1ccccc1C(=O)N1CCC(C(N)=O)CC1	–	19.6%	–
CCc1ccccc1N/C(=N\S(=O)(=O)c1ccccc1)C(F)(F)F	6.51 µM [rising, single point]	20.9%	0.651 µM [rising, full curve, poor fit]
Cc1ccc(-c2nnc(NCCCO)c3ccccc23)cc1	29.1 µM [rising, single point]	-5.56%	–
Cc1ccc(S(C)(=O)=O)cc1C(=O)N1CC(C(N)=O)Oc2ccccc21 (centres undefined)	–	26.1%	–
CS(=O)(=O)N(CC(=O)Nc1ccc(F)cc1F)c1cccc([N+](=O)[O-])c1	0.0206 µM [rising, full curve, poor fit]	–	–
O=C(NCc1ccccc1)c1noc2c1CCCCC2	–	31.9%	13 µM [rising, partial curve, poor fit]
NC1=NC(=Nc2ccccc2)c2ccccc21	–	-0.147%	0.00461 µM [falling, full curve, poor fit]
COc1cccc(NCc2ccc([N+](=O)[O-])s2)c1	0.00517 µM [rising, full curve, poor fit]	–	0.92 µM [rising, full curve, poor fit]
Cc1ccc(S(=O)(=O)c2nnn3c2nc(N2CCOCC2)c2ccccc23)cc1	6.51 µM [falling, single point]	-23.2%	–
CCOc1ccc2nc(NC(=O)C(NS(=O)(=O)c3cccs3)C(C)C)sc2c1 (centres undefined)	0.58 µM [rising, single point]	–	–
COC(=O)c1cc(Br)c(=O)n(Cc2cccnc2)c1	0.146 µM [rising, full curve, poor fit]	50.3%	0.92 µM [rising, full curve]
